Values quoted from earlier work as cited in patent US8956669B2, “Anticancer and antimicrobial compounds from antarctic extremophilic microorgansims” (priority 2009, dated 2015).
At least one compound was matched to its structure with a doubt left. Marks after values point to notes of the source that are not given here. Some results were stated once for a whole list of compounds, not compound by compound.

Test system: Mycobacterium tuberculosis
Settings: literature values, Table 2

Compound | MIC against Mycobacterium tuberculosis
CC12CCC(CC1)C(C)(C)O2 [1,8-cineole] | 62.5-100^m μg/ml
COc1cc(/C=C/C(O)=C/C(=O)/C=C/c2ccc(O)cc2)ccc1O [Demethoxycurcumin] | 200^i μg/ml
C=C1CCC2CC1C2(C)C (stereo not drawn) [beta-pinene] | 62.5-100^m μg/ml
C=C(C)[C@H]1CC=C(C)CC1 [limonene] | 62.5-100^m μg/ml
Cc1ccc(C(C)C)cc1 [p-cymene] | 62.5-100^m μg/ml
Cc1ccc(C(C)C)c(O)c1 [thymol] | 62.5-100^m μg/ml
